# Source: the supplement of paper PMC8728848
# The list shows a part of the results.
# How the values were obtained:
# Experiment in all cases: glycan array binding signal (z-score within array); higher = stronger binding
# Settings in all cases: glycan notation: IUPAC condensed, linker removed
# Man(b1-4)GlcNAc = target: Man(b1-4)GlcNAc
# Summary of the method: (§1)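 Negative Z-scores can be read as non-binding. The Z-score is calculated within each array and then averaged across arrays of one protein sequence at different concentrations or buffers and across linkers. Arrays, 3228 in all, were curated from the Consortium for Functional Glycomics database and kept only where the protein sequence was available.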
# Neu5Ac(a2-3)Gal = target: Neu5Ac(a2-3)Gal
# Summary of the method: as §1
# [1] = target: Neu5Ac(a2-3)Gal(b1-3)GalNAc
# Summary of the method: as §1
# [2] = target: Neu5Ac(a2-3)Gal(b1-3)GalNAc(b1-3)Gal(a1-4)Gal(b1-4)Glc
# Summary of the method: as §1
# [3] = target: Neu5Ac(a2-3)Gal(b1-3)GalNAc(b1-4)[Neu5Ac(a2-3)]Gal(b1-4)Glc
# Summary of the method: as §1
# [4] = target: Neu5Ac(a2-3)Gal(b1-3)GalNAc6S
# Summary of the method: as §1
# [5] = target: Neu5Ac(a2-3)Gal(b1-3)GlcNAc
# Summary of the method: as §1
# [6] = target: Neu5Ac(a2-3)Gal(b1-3)GlcNAc(b1-2)Man(a1-3)[Neu5Ac(a2-3)Gal(b1-3)GlcNAc(b1-2)Man(a1-6)]Man(b1-4)GlcNAc(b1-4)GlcNAc
# Summary of the method: as §1
# [7] = target: Neu5Ac(a2-3)Gal(b1-3)GlcNAc(b1-3)Gal(b1-3)GlcNAc
# Summary of the method: as §1
# [8] = target: Neu5Ac(a2-3)Gal(b1-3)GlcNAc(b1-3)Gal(b1-4)GlcNAc
# Summary of the method: as §1
# [9] = target: Neu5Ac(a2-3)Gal(b1-3)GlcNAc(b1-3)GalNAc
# Summary of the method: as §1
# [10] = target: Neu5Ac(a2-3)Gal(b1-3)GlcNAc6S
# Summary of the method: as §1
# [11] = target: Neu5Ac(a2-3)Gal(b1-3)[Fuc(a1-4)]GlcNAc
# Summary of the method: as §1
# [12] = target: Neu5Ac(a2-3)Gal(b1-3)[Fuc(a1-4)]GlcNAc(b1-3)Gal(b1-3)[Fuc(a1-4)]GlcNAc
# Summary of the method: as §1
# [13] = target: Neu5Ac(a2-3)Gal(b1-3)[Fuc(a1-4)]GlcNAc(b1-3)Gal(b1-4)[Fuc(a1-3)]GlcNAc
# Summary of the method: as §1
# [14] = target: Neu5Ac(a2-3)Gal(b1-3)[Neu5Ac(a2-3)Gal(b1-4)]GlcNAc
# Summary of the method: as §1
# [15] = target: Neu5Ac(a2-3)Gal(b1-3)[Neu5Ac(a2-6)]GalNAc
# Summary of the method: as §1
# Neu5Ac(a2-3)Gal(b1-4)Glc = target: Neu5Ac(a2-3)Gal(b1-4)Glc
# Summary of the method: as §1
# [16] = target: Neu5Ac(a2-3)Gal(b1-4)GlcNAc
# Summary of the method: as §1
# [17] = target: Neu5Ac(a2-3)Gal(b1-4)GlcNAc(b1-2)Man(a1-3)[GlcNAc(b1-2)Man(b1-4)GlcNAc(b1-2)Man(a1-6)]Man(b1-4)GlcNAc(b1-4)GlcNAc
# Summary of the method: as §1
# [18] = target: Neu5Ac(a2-3)Gal(b1-4)GlcNAc(b1-2)Man(a1-3)[Neu5Ac(a2-6)Gal(b1-4)GlcNAc(b1-2)Man(a1-6)]Man(b1-4)GlcNAc(b1-4)GlcNAc
# Summary of the method: as §1
# [19] = target: Neu5Ac(a2-3)Gal(b1-4)GlcNAc(b1-3)Gal(b1-3)GlcNAc
# Summary of the method: as §1
# [20] = target: Neu5Ac(a2-3)Gal(b1-4)GlcNAc(b1-3)Gal(b1-4)GlcNAc
# Summary of the method: as §1
# [21] = target: Neu5Ac(a2-3)Gal(b1-4)GlcNAc(b1-3)Gal(b1-4)GlcNAc(b1-3)Gal(b1-4)GlcNAc
# Summary of the method: as §1
# [22] = target: Neu5Ac(a2-3)Gal(b1-4)GlcNAc(b1-3)Gal(b1-4)[Fuc(a1-3)]GlcNAc
# Summary of the method: as §1
# [23] = target: Neu5Ac(a2-3)Gal(b1-4)GlcNAc(b1-3)GalNAc
# Summary of the method: as §1
# [24] = target: Neu5Ac(a2-3)Gal(b1-4)GlcNAc(b1-6)[Gal(b1-3)]GalNAc
# Summary of the method: as §1
# [25] = target: Neu5Ac(a2-3)Gal(b1-4)GlcNAc(b1-6)[Neu5Ac(a2-3)Gal(b1-3)]GalNAc
# Summary of the method: as §1
# [26] = target: Neu5Ac(a2-3)Gal(b1-4)GlcNAc6S
# Summary of the method: as §1
# [27] = target: Neu5Ac(a2-3)Gal(b1-4)[Fuc(a1-3)]GlcNAc
# Summary of the method: as §1
# [28] = target: Neu5Ac(a2-3)Gal(b1-4)[Fuc(a1-3)]GlcNAc(b1-3)Gal
# Summary of the method: as §1
# [29] = target: Neu5Ac(a2-3)Gal(b1-4)[Fuc(a1-3)]GlcNAc(b1-3)Gal(b1-4)GlcNAc
# Summary of the method: as §1
# [30] = target: Neu5Ac(a2-3)Gal(b1-4)[Fuc(a1-3)]GlcNAc(b1-3)Gal(b1-4)[Fuc(a1-3)]GlcNAc(b1-3)Gal(b1-4)[Fuc(a1-3)]GlcNAc
# Summary of the method: as §1
# [31] = target: Neu5Ac(a2-3)Gal(b1-4)[Fuc(a1-3)]GlcNAc(b1-3)GalNAc
# Summary of the method: as §1
# [32] = target: Neu5Ac(a2-3)Gal(b1-4)[Fuc(a1-3)]GlcNAc(b1-6)[Gal(b1-3)]GalNAc
# Summary of the method: as §1
# [33] = target: Neu5Ac(a2-3)Gal(b1-4)[Fuc(a1-3)]GlcNAc(b1-6)[Neu5Ac(a2-3)Gal(b1-3)]GalNAc
# Summary of the method: as §1
# [34] = target: Neu5Ac(a2-3)Gal(b1-4)[Fuc(a1-3)]GlcNAc6S
# Summary of the method: as §1
# [35] = target: Neu5Ac(a2-3)Gal6S(b1-4)GlcNAc
# Summary of the method: as §1
binder,measurement,setting,value
"PEB4 (Campylobacter jejuni), A1VYV6 (protein) MKKFSLVAAALIAGVALNVNAATVATVNGKSISDAEVSEFFAPMLRGQDFKTLPDNQKKALIQQYIMQDLILQDAKKQNLEKDPLYTKELDRAKDAILVNVYQEKILNTIKIDAAKVKAFYDQNKDKYVKPARVQAKHILVATEKEAKDIINELKGLKGKELDAKFSELAKEKSIDPGSKNQGGELGWFDQSTMVKPFTDAAFALKNGTITTTPVKTNFGYHVILKENSQAKGQIKFDEVKQGIENGLKFEEFKKVINQKGQDLLNSAKVEYK",glycan array binding signal (z-score),Man(b1-4)GlcNAc,0.622
same,glycan array binding signal (z-score),Neu5Ac(a2-3)Gal,-0.575
same,glycan array binding signal (z-score),[1],-0.816
same,glycan array binding signal (z-score),[2],0.791
same,glycan array binding signal (z-score),[3],2.36
same,glycan array binding signal (z-score),[4],-0.879
same,glycan array binding signal (z-score),[5],0.33
same,glycan array binding signal (z-score),[6],-1.03
same,glycan array binding signal (z-score),[7],-0.619
same,glycan array binding signal (z-score),[8],-0.833
same,glycan array binding signal (z-score),[9],-1.02
same,glycan array binding signal (z-score),[10],-1.09
same,glycan array binding signal (z-score),[11],-1.07
same,glycan array binding signal (z-score),[12],-0.853
same,glycan array binding signal (z-score),[13],-0.076
same,glycan array binding signal (z-score),[14],-0.455
same,glycan array binding signal (z-score),[15],0.189
same,glycan array binding signal (z-score),Neu5Ac(a2-3)Gal(b1-4)Glc,0.378
same,glycan array binding signal (z-score),[16],-0.737
same,glycan array binding signal (z-score),[17],-0.245
same,glycan array binding signal (z-score),[18],0.812
same,glycan array binding signal (z-score),[19],-0.489
same,glycan array binding signal (z-score),[20],0.491
same,glycan array binding signal (z-score),[21],0.263
same,glycan array binding signal (z-score),[22],0.086
same,glycan array binding signal (z-score),[23],0.116
same,glycan array binding signal (z-score),[24],-1.19
same,glycan array binding signal (z-score),[25],-0.505
same,glycan array binding signal (z-score),[26],0.139
same,glycan array binding signal (z-score),[27],-0.828
same,glycan array binding signal (z-score),[28],-0.338
same,glycan array binding signal (z-score),[29],-0.192
same,glycan array binding signal (z-score),[30],2.42
same,glycan array binding signal (z-score),[31],5.24
same,glycan array binding signal (z-score),[32],1.91
same,glycan array binding signal (z-score),[33],0.46
same,glycan array binding signal (z-score),[34],-0.884
same,glycan array binding signal (z-score),[35],1.6

# No new results follow: an excerpt of the list.
binder,measurement,setting,value
"PEB4 (Campylobacter jejuni), A1VYV6 (protein) MKKFSLVAAALIAGVALNVNAATVATVNGKSISDAEVSEFFAPMLRGQDFKTLPDNQKKALIQQYIMQDLILQDAKKQNLEKDPLYTKELDRAKDAILVNVYQEKILNTIKIDAAKVKAFYDQNKDKYVKPARVQAKHILVATEKEAKDIINELKGLKGKELDAKFSELAKEKSIDPGSKNQGGELGWFDQSTMVKPFTDAAFALKNGTITTTPVKTNFGYHVILKENSQAKGQIKFDEVKQGIENGLKFEEFKKVINQKGQDLLNSAKVEYK",glycan array binding signal (z-score),[24],-1.19
same,glycan array binding signal (z-score),[25],-0.505
